In PMC7819943, “Rice protein-binding microarrays: a tool to detect cis-acting elements near promoter regions in rice” one finds binding signal data, which are given here for 42 sequences.

The list shows a part of the results.

In the assay the target is T1, OsSMF1 (Oryza sativa, UniProt Q6ZLB0 1-436).
T1 sequence: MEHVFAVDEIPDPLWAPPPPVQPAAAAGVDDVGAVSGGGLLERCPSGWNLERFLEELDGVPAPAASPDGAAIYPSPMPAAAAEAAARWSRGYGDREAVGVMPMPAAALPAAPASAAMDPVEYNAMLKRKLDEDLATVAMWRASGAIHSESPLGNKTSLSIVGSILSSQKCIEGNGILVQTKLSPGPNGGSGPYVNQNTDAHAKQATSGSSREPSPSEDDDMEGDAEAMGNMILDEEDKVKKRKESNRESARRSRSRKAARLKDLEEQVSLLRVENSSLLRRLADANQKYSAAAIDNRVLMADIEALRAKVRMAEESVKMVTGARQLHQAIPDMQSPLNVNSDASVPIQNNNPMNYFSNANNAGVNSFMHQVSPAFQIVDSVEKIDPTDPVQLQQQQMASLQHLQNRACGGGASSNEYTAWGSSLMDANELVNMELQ
The assay can be described thus: protein-binding microarray (RPBM); PBS, 2% BSA, 51.3 ng/ul salmon testes DNA, 50 uM zinc acetate, 200 nM TF, 25 C, 1 h; high values mean tight binding. The following applies: protein: recombinant; tags: N-terminal polyhistidine and DsRed monomer fusion (pET32a); chain copies: 2; label: CyDye5-dUTP incorporated in the synthesized complementary strand; 3' TTTTT single-stranded linker to array surface; dsDNA, one strand shown. Put shortly: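 An Axon 4000B scanner gave the binding signal as per-feature fluorescence intensity in arbitrary units. This followed washing of a custom Agilent array that had been incubated for 1 h at 25 °C with 200 nM protein in PBS, 2% BSA, salmon testes DNA and 50 µM zinc acetate. The proteins were transcription factors fused at the N-terminus to polyhistidine and DsRed, expressed in E. coli BL21-CodonPlus and purified on Ni–NTA.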
For the sequence “AAACATAGAAGATGGATGGTGATGTCAATGATGTGCCTCACGGAGTCACCTAGTGCAG”, the binding signal was 3830 fluorescence intensity (a.u.).

Take “CGAACCCGACTCCCTCCACAATTCCGCTAGTCCGAGTCAACGGAGTCACCTAGTGCAG”: the binding signal was 4820 fluorescence intensity (a.u.).

On to “TGACATGTAGCACTCACATGAGTCAATGACATATGGGTCACGGAGTCACCTAGTGCAG”, for which the binding signal was 6640 fluorescence intensity (a.u.).

Turning to “CTGGTTGCTTGCGTGCTGGTTTGGCTTTGGATTGAACAATCGGAGTCACCTAGTGCAG”, the binding signal is 3170 fluorescence intensity (a.u.).

With “CTCGCGCGCGTGGTGTCACGTCTTGACCCGCCGCTCCGACCGGAGTCACCTAGTGCAG”, the binding signal was 4096 fluorescence intensity (a.u.).

In the case of “CATCTCCTACCTCCATCGATCCATCTATATAACCCATGGTCGGAGTCACCTAGTGCAG”, the binding signal is 3380 fluorescence intensity (a.u.).

Regarding “TATATACATTCCGAGCTAGGTCAGCATATTGCAACAGCTACGGAGTCACCTAGTGCAG”, the binding signal was 3710 fluorescence intensity (a.u.).

With “CCACTGCCCCTCCATGCGCGCGCGCGTGCGTTGCTCAGCTCGGAGTCACCTAGTGCAG”, the binding signal was 3480 fluorescence intensity (a.u.).

Take “CGAGAAAATGGACAGTATGCCACCCTATAGATTGGGTTCGCGGAGTCACCTAGTGCAG”: the binding signal is 3180 fluorescence intensity (a.u.).

With “ATTGTTGGGTATCTATTGGGTATGCTCTAATAGTCATGTTCGGAGTCACCTAGTGCAG”, the binding signal was 3610 fluorescence intensity (a.u.).

Turning to “GAGCTAGCAGACAACTATCAAGAGTCACATGAACTTCAGACGGAGTCACCTAGTGCAG”, the binding signal was 3140 fluorescence intensity (a.u.).

In the case of “CTGTGGTGTACGAGCGCAATGTGTAATGTCGTCGTTGGGGCGGAGTCACCTAGTGCAG”, the binding signal is 3350 fluorescence intensity (a.u.).

Take “TCTAGATGAATCTGCCAACTTGGTATGTGCCATTATTATGCGGAGTCACCTAGTGCAG”: the binding signal is 6570 fluorescence intensity (a.u.).

Consider “GAAAACCAAGTCAACGCTGCCACGTCAGTGAAACCGTCATCGGAGTCACCTAGTGCAG”, for which the binding signal was 22900 fluorescence intensity (a.u.).

“GTTGACCCGCAGTTCCCCTTTGTTTTCCACGTGTTTCTTCCGGAGTCACCTAGTGCAG”: the binding signal was 7790 fluorescence intensity (a.u.).

As to “CTACTAGAGCTGTAGCTGACGTGGGTCCACCGGGCAGCGACGGAGTCACCTAGTGCAG”, the binding signal was 19400 fluorescence intensity (a.u.).

Take “TAAAGTGGTGATCTTTAGTCCCGGTTTGTGACATCAACCGCGGAGTCACCTAGTGCAG”: the binding signal was 3530 fluorescence intensity (a.u.).

With “TCCAGGCGGCGAGACGTGACCAAATCACGTACAAGTCGTCCGGAGTCACCTAGTGCAG”, the binding signal was 3160 fluorescence intensity (a.u.).

On to “TTCTATGGCCGTTGATGTAGGGGTGCTTGTGTGGATGATGCGGAGTCACCTAGTGCAG”, for which the binding signal is 3400 fluorescence intensity (a.u.).

As for “CGTTTCAATTCGGATGATAGGGGCATTGTTTCCTCGTGGACGGAGTCACCTAGTGCAG”, the binding signal was 3680 fluorescence intensity (a.u.).

“GCCGGATATGGGAGGATATATAAGAGTCTGATGATAAAATCGGAGTCACCTAGTGCAG”: the binding signal was 3220 fluorescence intensity (a.u.).

For “GCGTGCGTCAGACCGCCTGTCGCCACCTAACCCACGATCTCGGAGTCACCTAGTGCAG”, the binding signal was 3820 fluorescence intensity (a.u.).

On to “TTTAGTTATTACTACCACCACAGCACTACTAGAAATTAGGCGGAGTCACCTAGTGCAG”, for which the binding signal is 8770 fluorescence intensity (a.u.).

For “TATCGGAAATGGGACCGTCGGAACGGAATATATCGATATTCGGAGTCACCTAGTGCAG”, the binding signal was 25700 fluorescence intensity (a.u.).

On to “TACTTTTACGCTCCGTGGGCCAGCGCGTCACGTTGGAGAGCGGAGTCACCTAGTGCAG”, for which the binding signal was 4360 fluorescence intensity (a.u.).

With “GTTCTTGTTGATGCCCAATGATGATCCTTTAATTGTCATGCGGAGTCACCTAGTGCAG”, the binding signal is 3650 fluorescence intensity (a.u.).

Turning to “TACCGTCGGTTGACTATGTGTTGACCGTTAACTCTCAAGTCGGAGTCACCTAGTGCAG”, the binding signal is 3870 fluorescence intensity (a.u.).

Consider “AAACCTCCAATCCCCAATAGCCCACGTACGGTTGCAGACACGGAGTCACCTAGTGCAG”, for which the binding signal is 3420 fluorescence intensity (a.u.).

“AGGCCACGCCAGCCCAGCTTGCCCGCGCCCCTCCTTCAGTCGGAGTCACCTAGTGCAG”: the binding signal is 4880 fluorescence intensity (a.u.).

Consider “CACTTCGTCTCCTCCGCTCCTTGCGCCGCCGCCAAGACGACGGAGTCACCTAGTGCAG”, for which the binding signal was 24100 fluorescence intensity (a.u.).

Regarding “TCTTGCATTGTTGCATCATCAGCACCCAACTTTTGCAGATCGGAGTCACCTAGTGCAG”, the binding signal was 5810 fluorescence intensity (a.u.).

For the sequence “GGAGCATATCGTAGGTGTGCATGTCAGCAATGAAGGATTTCGGAGTCACCTAGTGCAG”, the binding signal was 4020 fluorescence intensity (a.u.).

“CAGCATCTATGTCAGTCACCAGCGACCTCATTACCAGAAGCGGAGTCACCTAGTGCAG”: the binding signal is 3380 fluorescence intensity (a.u.).

Turning to “CGTAGACGAGGTGGAGGTGCGGCCACGATCGACGGGAGCACGGAGTCACCTAGTGCAG”, the binding signal is 26400 fluorescence intensity (a.u.).

As for “AATACGTTTTCCTACCGTGAAGGCGTATGCATATTTTACCCGGAGTCACCTAGTGCAG”, the binding signal was 4000 fluorescence intensity (a.u.).

In the case of “CTTCAGCCCAGAGTACTGGAGTTTGGCACACCGGAGTCAGCGGAGTCACCTAGTGCAG”, the binding signal is 4030 fluorescence intensity (a.u.).

In the case of “TATGGATATGATCCTTTGTTATCCACGTGCACGCAATATCCGGAGTCACCTAGTGCAG”, the binding signal is 4230 fluorescence intensity (a.u.).

Turning to “TTCAGGATGAATGGTACGTAACATGATAGGACACTATTCACGGAGTCACCTAGTGCAG”, the binding signal is 48700 fluorescence intensity (a.u.).

As for “GAGACTGCCCCGTCTGCGCCAACACGTCCAGAACGTTGCACGGAGTCACCTAGTGCAG”, the binding signal was 4040 fluorescence intensity (a.u.).

As for “TAACATAGTTGATATTGTTTAATGTCATGACAAAGAATGACGGAGTCACCTAGTGCAG”, the binding signal is 3580 fluorescence intensity (a.u.).

On to “AGCTCCACAACATCGAAGCAGTGACACTGTCCCGAACTCGCGGAGTCACCTAGTGCAG”, for which the binding signal is 22600 fluorescence intensity (a.u.).

Turning to “TTGCTGAACTGCATATGTCAGCTTAACTCTGAAACATCATCGGAGTCACCTAGTGCAG”, the binding signal is 4090 fluorescence intensity (a.u.).
